# Results as given in patent US6548307B2, “Determination of logP coefficients via a RP-HPLC column” (Pfizer Inc., priority 2000, dated 2003).
# Assay: physchem
# Experimental: The mobile phase consisted, in all cases, of 20 mM MOPS buffer at pH 7.4, and methanol in varying proportions from 70 to 15% v/v. […] The capacity factors data (k′=(tR−t0)/t0) obtained at various amounts of methanol were then extrapolated to 0% methanol and reported as log k′w, using a linear procedure. […] Injections of pure methanol were used to determine t0, i.e. the dead time, while tR has the usual meaning of the retention time for the analyte.
# All the chromatographic runs were performed on a HP-1100 HPLC ChemStation at the ambient temperature. The columns used were Supelcosil LC-ABZ, 5μm, 4.6×50 mm. […] Columns having different silica bond lots were tested to ensure reproducibility. Samples were dissolved in 1:1 methanol/water at a concentration of 10-30 μg/mL. The flow rate was 0.5, 1 or 2 mL/min, depending on the lipophilicity range. Three lipophilicity ranges were established using, in all cases, three points for the extrapolation to k′w, as described in the table below.
# The samples were placed in the appropriate range by estimating their lipophilicity via computed values, or by prior experience with a given class. In each case the entire group of samples was run before the column is equilibrated to the next condition, in an automated fashion, and the initial estimation need not be very accurate. […]
smiles,measurement,value
COC(=O)C1=C(C)NC(C)=C(C(=O)OC)C1c1ccccc1[N+](=O)[O-] [Nifedipine],chromatographic logP,2.86
